According to US5863899A (priority 1994, dated 1999):
HELM strings list residues between dots; [ac] is acetyl, [am] amide, other brackets name non-standard units.

Experiment: peptide synthesis
Conditions: conjugation step

Substance	conjugation yield [%]
PEPTIDE1{[dR].R.P.[Hyp].G.F.C.[dF].L.R}|CHEM1{[SuccHexCE1218]}$PEPTIDE1,CHEM1,7:R3-1:R1$$$V2.0	35
PEPTIDE1{[dR].R.P.[Hyp].G.F.C.[dF].L.R}|CHEM1{[SucHexIndo]}$PEPTIDE1,CHEM1,7:R3-1:R1$$$V2.0	45
